These are literature values, as cited in patent US11642346B2, “Combination therapy for treating cancer” (Epizyme, Inc., priority 2017, dated 2023).

The data set deals with G401 cell line. To be noted: read-out: Long term proliferation IC50; G401 malignant rhabdoid tumor cell line; cited from earlier work.

With `CCN(c1cc(-c2ccc(CN3CCOCC3)cc2)cc(C(=O)NCc2c(C)cc(C)[nH]c2=O)c1C)C1CCOCC1` [tazemetostat], the IC50 was 135 nM.
